Consider two compounds from PMC4965013, “Open Source Drug Discovery with the Malaria Box Compound Collection for Neglected Diseases and Beyond” (PLoS Pathogens, 2016).

Chains of the proteins cited; added tags and fusions are not shown.
UniProt P41595, whole entry: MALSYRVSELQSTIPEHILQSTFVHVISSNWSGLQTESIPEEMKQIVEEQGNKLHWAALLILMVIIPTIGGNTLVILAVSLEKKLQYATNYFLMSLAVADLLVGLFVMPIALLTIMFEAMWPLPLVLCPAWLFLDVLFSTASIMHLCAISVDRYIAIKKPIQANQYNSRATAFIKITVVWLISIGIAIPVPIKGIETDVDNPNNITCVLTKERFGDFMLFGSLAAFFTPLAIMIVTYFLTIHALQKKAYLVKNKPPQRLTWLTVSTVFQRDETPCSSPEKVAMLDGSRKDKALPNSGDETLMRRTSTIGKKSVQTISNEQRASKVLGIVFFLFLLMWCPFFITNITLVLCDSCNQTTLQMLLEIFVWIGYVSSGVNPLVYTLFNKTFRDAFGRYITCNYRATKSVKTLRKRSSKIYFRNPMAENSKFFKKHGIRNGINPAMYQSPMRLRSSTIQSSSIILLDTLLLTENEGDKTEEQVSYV

pKi: −log10 of the molar value.

The target in experiment [1] is 5-HT2B receptor (Homo sapiens, UniProt P41595). Put plainly: 5-HT2B radioligand binding.
In experiment [2] the test system is PK6. To be noted: control 10 µM; compounds 1 µM; ref [25]; cited from earlier work.

In turn, `CC[C@@H](CO)NC(=O)[C@@H]1C=C2c3cccc4c3c(cn4C)C[C@H]2N(C)C1` [methysergide] gave a pKi in experiment [1] of 8.06.

In the case of `CN[C@@H]1C[C@H]2O[C@@](C)([C@@H]1OC)n1c3ccccc3c3c4c(c5c6ccccc6n2c5c31)C(=O)NC4` [staurosporine], the PK6 % inhibition in experiment [2] is above 80%.
